Measurements published in PubChem BioAssay AID2685 (National Center for Advancing Translational Sciences (NCATS), 2010).
Some of the results follow. Further columns of the screen follow, without active or inactive calls. The list favours compounds with an active or inconclusive main result. Potencies come from curve fits of mixed quality, noted in brackets.

Assay: qHTS Assay for Lipid Storage Modulators in Drosophila S3 Cells;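 as to cell number change: cells counted by Cell Tracker Red CMTPX staining in the red channel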
Conditions: BODIPY lipid droplet fluorescence, 18-24 h; for cell number change: measured here: cell count max response, cells fed with added oleic acid
Outline: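 Drosophila S3 cells loaded with oleic acid (400 uM, as added) and compounds at several concentrations; lipid droplets imaged by 488-nm laser-scanning cytometry, 500–530 nm intensity and object ratio to cell channel. Percent activity normalized to 20 uM Triacsin C.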

[1] = measured here: lipid fluorescence (Fed channel) AC50, cells fed with added oleic acid
[2] = measured here: cell number channel AC50, cells fed with added oleic acid

SMILES | AC50 [1] | cell number change [%] | AC50 [2]
CCC(c1nnc(SCC(=O)Nc2ccc(C(C)=O)cc2)n1C1CCCCC1)N(C)C (stereo not drawn) | 0.461 µM [falling, single point] |  | 
O=[N+]([O-])c1ccccc1C1Nc2cccc3cccc(c23)N1 | 5.17 µM [falling, full curve] | -67.8 | 4.11 µM [falling, full curve]
CC(Sc1ncn[nH]1)C(=O)Nc1cc(C(F)(F)F)ccc1Cl (stereo not drawn) | 0.058 µM [falling, full curve, poor fit] | -24.5 | 
CCC(Sc1nc(-c2ccccc2)c(-c2ccccc2)[nH]1)C(=O)O (stereo not drawn) |  | 14.9 | 1.03 µM [rising, full curve, poor fit]
CN1CCN(NC(=S)Nc2ccc(OC(F)F)cc2)CC1 | 0.58 µM [falling, single point] |  | 
Cc1ccc(C(=O)Cn2nnc(-c3cccs3)n2)cc1 | 16.4 µM [rising, single point] | 16.1 | 
CN1CCN(NC(=O)c2cccc3ccccc23)CC1 | 16.4 µM [rising, single point] | 45.6 | 4.61 µM [rising, full curve]
CC(=O)Nc1ccc(S(=O)(=O)NCC(=O)OCc2cc(=O)oc3ccc4ccccc4c23)cc1 | 0.651 µM [rising, partial curve] | 6.74 | 
Cc1ccc(C2c3c(oc4ccccc4c3=O)C(=O)N2c2nnc(C(C)C)s2)o1 (stereo not drawn) |  | -38.8 | 0.326 µM [falling, full curve, poor fit]
O=C(CCC(=O)N1CCOCC1)NCc1cccc(C(F)(F)F)c1 | 2.31 µM [rising, single point] | 22.1 | 
O=C(Nc1ccnn1C1CCN(Cc2cccc(O)c2)CC1)C1CCCC1 | 29.1 µM [falling, single point] | -12.4 | 
O=C1C(Oc2ccccc2)C(c2cccs2)N1Cc1ccc2c(c1)OCO2 (stereo not drawn) | 0.82 µM [rising, single point] |  | 
COc1cc(COCC(O)CN2CCc3ccccc3C2)cc(OC)c1OC (stereo not drawn) |  |  | 1.03 µM [falling, full curve, poor fit]
Cc1ccc(CONC(=O)c2ccccc2Cl)cc1 | 14.6 µM [falling, single point] | -14.1 | 
CCc1nonc1NC(=O)c1oc2ccc(Cl)cc2c1C |  | 20.9 | 
CC(C)NS(=O)(=O)c1ccc(Oc2ncc(C(F)(F)F)cc2Cl)cc1 | 5.8 µM [falling, single point] | 2.73 | 0.731 µM [falling, full curve]
Cc1ccc(C(C)C)c(OCc2nn(CC(=O)c3ccc(Cl)cc3)c3[n+]2CCCCC3)c1 | 2.06 µM [falling, partial curve] | -70.3 | 25.9 µM [falling, partial curve, poor fit]
O=C(CSc1ncnc2c1oc1ccccc12)N1CCc2ccccc2C1 | 2.31 µM [rising, partial curve] | 4.56 | 1.46 µM [rising, partial curve]
CC1Cc2cc(S(=O)(=O)NCc3ccccc3)ccc2N1C(=O)C1CCC1 (stereo not drawn) |  | 69.8 | 29.1 µM [rising, single point]
C=CCn1c(SCc2ccc(C(=O)O)cc2)nc2sc(C)c(C)c2c1=O |  | 5.61 | 6.51 µM [rising, single point]
CCOC(=O)c1c(NC(=O)C2(C)Cc3ccccc3C(=O)O2)sc2c1CCCC2 (stereo not drawn) | 29.1 µM [rising, single point] | 6.74 | 6.51 µM [rising, single point]
COC(=O)COc1cccc(NC(=O)COc2ccccc2)c1 |  | -94.5 | 29.1 µM [falling, single point]
COc1ccc(C(=O)O)cc1S(=O)(=O)Nc1ccc(Oc2ccccc2)cc1 | 0.731 µM [falling, single point] | 8.68 | 
CC1=C(C(=O)OC(C)C)C(c2coc3ccccc3c2=O)C2=C(CCCC2=O)N1 (stereo not drawn) | 6.51 µM [rising, partial curve] | -8.01 | 
CC(C(=O)NC1CCCCC1)N(Cc1ccccc1)C(=O)c1snc(C(N)=O)c1N (stereo not drawn) | 0.58 µM [falling, single point] | 6.09 | 
Cn1cc(CN2CCC(n3nccc3NC(=O)CCCc3ccccc3)CC2)cn1 | 29.1 µM [rising, single point] | -14.7 | 0.116 µM [falling, full curve, poor fit]
CCN(CC)CCN(C(=O)c1ccc2ccccc2c1)c1nc2cc3c(cc2s1)OCO3 | 1.46 µM [rising, partial curve, poor fit] | 29.7 | 

Already shown: an excerpt of the list.
SMILES | AC50 [1] | cell number change [%] | AC50 [2]
CN1CCN(NC(=S)Nc2ccc(OC(F)F)cc2)CC1 | 0.58 µM [falling, single point] |  | 
Cc1ccc(C(=O)Cn2nnc(-c3cccs3)n2)cc1 | 16.4 µM [rising, single point] | 16.1 | 
CN1CCN(NC(=O)c2cccc3ccccc23)CC1 | 16.4 µM [rising, single point] | 45.6 | 4.61 µM [rising, full curve]

Next results.

SMILES | AC50 [1] | cell number change [%] | AC50 [2]
CCC(=O)c1c[nH]c(C(=O)NCc2cccnc2)c1 | 13 µM [falling, partial curve] | -36.8 | 7.31 µM [falling, partial curve]
COc1ccc(CNc2nc3c(c(=O)[nH]c(=O)n3C)n2CCCc2ccccc2)cc1 | 0.731 µM [rising, full curve, poor fit] | 4.37 | 0.411 µM [rising, full curve, poor fit]
COc1ccc(NC(=O)N2CCN(S(C)(=O)=O)CC2)cc1 |  | -37.8 | 35.5 µM [falling, single point]
Cc1ccc(C(=O)Nc2ccc3c(c2)OCO3)cc1S(=O)(=O)N1CCOCC1 | 1.64 µM [rising, full curve] | 10.2 | 
O=C(CC12CC3CC(CC(C3)C1)C2)Nc1ccc2c(c1)COC2=O | 29.1 µM [falling, single point] | -23.6 | 
O=C(Nc1ccnn1C1CCN(Cc2cccc(OCCO)c2)CC1)C1CCOC1 (stereo not drawn) | 29.1 µM [rising, single point] | 14.6 | 
CC1=C(C(N)=O)C(c2ccccn2)n2nc(SCc3ccccc3)nc2N1 (stereo not drawn) | 0.058 µM [rising, full curve, poor fit] | 14.5 | 
CCOC(=O)c1ccc(NC(=S)N(CCCN2CCCC(C)C2)Cc2cccs2)cc1 (stereo not drawn) | 0.116 µM [falling, full curve, poor fit] | 56.3 | 6.51 µM [rising, single point]
Cc1cc(C)nc(NC(=O)/C=C/c2ccc(Cl)cc2Cl)c1 |  | -39.4 | 32.6 µM [falling, partial curve, poor fit]
Cc1ccccc1NS(=O)(=O)c1ccc(NC(=O)c2ccco2)cc1 | 0.291 µM [rising, full curve] |  | 6.51 µM [rising, single point]
CS(=O)(=O)N(CC(=O)N1CCCCC1)C1CCCCC1 | 6.51 µM [falling, single point] | -31 | 7.31 µM [falling, single point]
S=C(NCCSCc1c(Cl)cccc1Cl)Nc1ccccc1 |  | 3.86 | 
CCn1nc(C(=O)N2CCN(Cc3nc4ccccc4s3)CC2)c2ccccc2c1=O | 0.82 µM [falling, full curve, poor fit] | -16.5 | 
O=[N+]([O-])c1ccc(N2CCN(S(=O)(=O)c3ccc4ccccc4c3)CC2)cc1NCc1ccco1 | 6.51 µM [rising, single point] |  | 0.92 µM [rising, partial curve]
Cc1cc(C)nc(N2CCCC(C(=O)Nc3nc4ccc(S(C)(=O)=O)cc4s3)C2)n1 (stereo not drawn) |  |  | 6.51 µM [rising, single point]
COc1ccc(-n2nc(C(=O)NCC(=O)N3CCCCCC3)c3ccccc3c2=O)cc1OC | 29.1 µM [falling, single point] | -0.794 | 
COc1ccc(NC(=O)c2sc3ncn(CC(=O)N4CCN(c5ccccn5)CC4)c(=O)c3c2C)c(OC)c1 | 20.6 µM [rising, partial curve] | -22.4 | 
O=C(Nc1ccccc1C(F)(F)F)c1cc2ncc(CCCl)cn2n1 | 3.26 µM [rising, partial curve] | -4.71 | 
O=C(Nc1ccc(Cl)cc1)Nc1nnc(CSc2ccc(Cl)cc2)s1 | 0.461 µM [rising, full curve, poor fit] | 15.5 | 
COc1ccc(N2CCCn3c2nc2c3c(=O)n(Cc3ccccc3F)c(=O)n2C)cc1 | 1.03 µM [rising, full curve, poor fit] | 18.5 | 
COc1ccccc1NC(=S)NCc1cccnc1 | 29.1 µM [rising, partial curve] | 47.1 | 20.6 µM [rising, single point]
Cc1nc2cc(-c3cccc(F)c3)nn2c(N2CCN(C(=O)c3ccco3)CC2)c1C | 6.51 µM [rising, single point] |  | 6.51 µM [rising, single point]
CCN(C(=O)COc1cc(OC)ccc1C(C)=O)C1CCS(=O)(=O)C1 (stereo not drawn) | 1.84 µM [falling, full curve, poor fit] | 26.5 | 
CCN(CC)CCCN1C(=O)C2C(C(=O)Nc3ccc(C(C)C)cc3)C3C=CC2(O3)C1C(=O)NC1CCCCC1 (stereo not drawn) | 25.9 µM [falling, partial curve] |  | 
CN(Cc1ccccc1)c1ncnc2sccc12 |  | -39 | 29.1 µM [falling, single point]
Cc1nc(CSc2ccc(Cl)cc2)cc(N2CCOCC2)n1 | 5.17 µM [rising, partial curve] | 4.58 | 
O=C(CSc1nc(C(F)(F)F)cc(=O)[nH]1)N1CCC(Cc2ccccc2)CC1 | 0.517 µM [falling, full curve] | 7.39 | 0.651 µM [falling, single point]
